# Reference: PubChem BioAssay AID1224829 (NIAID, 2016)
# Assay: 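Genes needed for LPS-driven NF-kappaB p65 nuclear entry in mouse macrophages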 (follow-up of hits)
# System: mouse RAW264.7 G9 macrophage reporter cells
# Knock-down reagent: single siRNA against mouse genes, 100 nM
# Time to read-out: 2 days of siRNA knock-down, then 40 min of LPS before fixing
# Challenge: LPS (Salmonella minnesota R595) at 10 ng/ml
# Detection: 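Imaging of GFP-p65 after 40 min of LPS; nuclear over perinuclear ring intensity ratio, scaled to plate median and non-targeting control wells, given as z-score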
# Scale: p65 translocation z-score and gene median z-score, per vendor: higher = more nuclear NF-kappaB p65 after LPS
# Call rule: 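An siRNA is called active when the mean z-score of its two replicates is above 2 or below -2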
# Calls: active = changed p65 translocation (either direction); inactive = no clear change
# Here is an unselected part of about 3,800 reagents. 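Calls cover raised and lowered translocation; gene median uses one vendor's three siRNAs; qiagen siRNAs acted more weakly than ambion siRNAs.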 The numbers tell different reagents against one gene apart.
Target gene,siRNA no.,siRNA vendor or control pool,"p65 translocation z-score, replicate mean","p65 translocation z-score, replicate 1","p65 translocation z-score, replicate 2","gene median z-score, per vendor",activity call
Lrrc10 (leucine rich repeat containing 10),1,ambion single siRNA,-1.06,-0.931,-1.19,-0.986,inactive
Lrrc10 (leucine rich repeat containing 10),2,ambion single siRNA,-1.57,-1.04,-2.09,-0.986,inactive
Lrrc10 (leucine rich repeat containing 10),3,ambion single siRNA,0.213,0.865,-0.44,-0.986,inactive
Lrrc10 (leucine rich repeat containing 10),4,qiagen single siRNA,0.191,-0.376,0.759,0.669,inactive
Lrrc10 (leucine rich repeat containing 10),5,qiagen single siRNA,-0.472,-3.31,2.36,0.669,inactive
Lrrc10 (leucine rich repeat containing 10),6,qiagen single siRNA,2.99,0.58,5.41,0.669,active
Prdm8 (PR domain containing 8),1,ambion single siRNA,-1.72,-1.4,-2.03,-1.07,inactive
Prdm8 (PR domain containing 8),2,ambion single siRNA,-1.78,-2.83,-0.732,-1.07,inactive
Prdm8 (PR domain containing 8),3,ambion single siRNA,1.52,2.43,0.605,-1.07,inactive
Prdm8 (PR domain containing 8),4,qiagen single siRNA,2.39,2.71,2.07,-0.86,active
Prdm8 (PR domain containing 8),5,qiagen single siRNA,-1.51,-0.86,-2.17,-0.86,inactive
Prdm8 (PR domain containing 8),6,qiagen single siRNA,-4.33,-4.33,,-0.86,active
Lce3c (late cornified envelope 3C),1,ambion single siRNA,4.2,5.28,3.13,1.3,active
Lce3c (late cornified envelope 3C),2,ambion single siRNA,1.3,1.28,1.32,1.3,inactive
Lce3c (late cornified envelope 3C),3,ambion single siRNA,0.0675,-0.447,0.582,1.3,inactive
Lce3c (late cornified envelope 3C),4,qiagen single siRNA,2.4,2.67,2.12,-0.348,active
Lce3c (late cornified envelope 3C),5,qiagen single siRNA,-0.746,-0.594,-0.899,-0.348,inactive
Lce3c (late cornified envelope 3C),6,qiagen single siRNA,-0.421,-0.74,-0.103,-0.348,inactive
Zfp428 (zinc finger protein 428),1,ambion single siRNA,-0.756,-1.26,-0.256,-3.15,inactive
Zfp428 (zinc finger protein 428),2,ambion single siRNA,-3.15,-3.8,-2.5,-3.15,active
Zfp428 (zinc finger protein 428),3,ambion single siRNA,-3.97,-4.12,-3.81,-3.15,active
Zfp428 (zinc finger protein 428),4,qiagen single siRNA,2.07,0.894,3.24,0.74,active
Zfp428 (zinc finger protein 428),5,qiagen single siRNA,-1.2,-1.26,-1.15,0.74,inactive
Zfp428 (zinc finger protein 428),6,qiagen single siRNA,1.08,0.586,1.58,0.74,inactive
Gm10283 (predicted gene 10283),1,ambion single siRNA,0.519,2.14,-1.1,-1.03,inactive
Gm10283 (predicted gene 10283),2,ambion single siRNA,-0.586,-0.147,-1.03,-1.03,inactive
Gm10283 (predicted gene 10283),3,ambion single siRNA,-1.77,-1.77,,-1.03,inactive
Gm10283 (predicted gene 10283),4,qiagen single siRNA,-1.96,-0.174,-3.74,0.269,inactive
Gm10283 (predicted gene 10283),5,qiagen single siRNA,-1.51,0.712,-3.73,0.269,inactive
Gm10283 (predicted gene 10283),6,qiagen single siRNA,2.34,0.938,3.74,0.269,active
Rbl2 (RB transcriptional corepressor like 2),1,ambion single siRNA,1.76,2.31,1.21,-0.921,inactive
Rbl2 (RB transcriptional corepressor like 2),2,ambion single siRNA,-0.991,-1.2,-0.78,-0.921,inactive
Rbl2 (RB transcriptional corepressor like 2),3,ambion single siRNA,-1.78,-1.06,-2.49,-0.921,inactive
Rbl2 (RB transcriptional corepressor like 2),4,qiagen single siRNA,1.81,1.86,1.76,-0.39,inactive
Rbl2 (RB transcriptional corepressor like 2),5,qiagen single siRNA,-2.68,-4.97,-0.39,-0.39,active
Rbl2 (RB transcriptional corepressor like 2),6,qiagen single siRNA,-1.72,-1.72,,-0.39,inactive
Rassf8,1,ambion single siRNA,-4.42,-5.62,-3.22,-3.82,active
Rassf8,2,ambion single siRNA,-0.63,1.75,-3.01,-3.82,inactive
Rassf8,3,ambion single siRNA,-4.95,-5.5,-4.41,-3.82,active
Rassf8,4,qiagen single siRNA,-0.912,-0.912,,-0.133,inactive
Rassf8,5,qiagen single siRNA,-0.565,-0.997,-0.133,-0.133,inactive
Rassf8,6,qiagen single siRNA,2.16,0.29,4.03,-0.133,active
Tex261 (testis expressed gene 261),1,ambion single siRNA,-0.74,0.123,-1.6,-3.01,inactive
Tex261 (testis expressed gene 261),2,ambion single siRNA,-3.01,-4.11,-1.9,-3.01,active
Tex261 (testis expressed gene 261),3,ambion single siRNA,-5.67,-5.5,-5.83,-3.01,active
Tex261 (testis expressed gene 261),4,qiagen single siRNA,2.67,1.95,3.39,1.57,active
Tex261 (testis expressed gene 261),5,qiagen single siRNA,0.12,-1.39,1.63,1.57,inactive
Tex261 (testis expressed gene 261),6,qiagen single siRNA,0.455,-0.59,1.5,1.57,inactive
Ren2 (renin 2 tandem duplication of Ren1),1,ambion single siRNA,3.59,4.29,2.89,-1.91,active
Ren2 (renin 2 tandem duplication of Ren1),2,ambion single siRNA,-2.86,-2.47,-3.24,-1.91,active
Ren2 (renin 2 tandem duplication of Ren1),3,ambion single siRNA,-2.45,-1.36,-3.54,-1.91,active
Ren2 (renin 2 tandem duplication of Ren1),4,qiagen single siRNA,0.813,-0.557,2.18,0.391,inactive
Ren2 (renin 2 tandem duplication of Ren1),5,qiagen single siRNA,0.307,1.34,-0.726,0.391,inactive
Ren2 (renin 2 tandem duplication of Ren1),6,qiagen single siRNA,0.818,-0.69,2.32,0.391,inactive

Quoted from above for reference:
Target gene,siRNA no.,siRNA vendor or control pool,"p65 translocation z-score, replicate mean","p65 translocation z-score, replicate 1","p65 translocation z-score, replicate 2","gene median z-score, per vendor",activity call
Lrrc10 (leucine rich repeat containing 10),6,qiagen single siRNA,2.99,0.58,5.41,0.669,active
Prdm8 (PR domain containing 8),1,ambion single siRNA,-1.72,-1.4,-2.03,-1.07,inactive
Prdm8 (PR domain containing 8),2,ambion single siRNA,-1.78,-2.83,-0.732,-1.07,inactive
